Measurements reported in PubChem BioAssay AID1035470 (Broad Institute, 2014).
Fewer than 10 of roughly 1,800 compounds were called active. About 16% were inconclusive and are not listed.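 Rule for the calls: active = compound lowering the normal-ribosome reporter at least twice as much as the humanized-ribosome reporter, growth loss under a set limit; inconclusive = no clear call, values can overlap the other calls; inactive = the rest.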 Only a part is listed here, and it is no random draw. Entries with a potency or affinity are not part of this list.

Test: growth inhibition of wild-type GFP E. coli versus G2058-humanized strain, dose response, G2058 mutant RFP vs wild-type GFP, cherry-pick, two tests (AID 1035470)
Conditions: E. coli WT-GFP vs G2058-humanized RFP, fluorescence, 24 h; at 50 µM (top of the series)

Activity change, negative = inhibition, inactive:
COc1ccc(NC(=O)CSc2n[nH]c(-c3ccncc3)n2)c([N+](=O)[O-])c1 -4.21
CC(C)CNc1nc(S(=O)(=O)c2ccccc2)c(Cl)s1 -11.6
CS(=O)(=O)Nc1ccccc1C(=O)NCCSc1ccccc1 -4.79
CC(C)OC(=O)c1sc2nc(-c3ccccc3)ccc2c1N 10.6
COc1ccc(-c2nn(-c3ccccc3C)cc2CNCc2cccnc2)cc1F -12.3
CCOC(=O)c1cc2nc(-c3ccccc3)cc(C)n2n1 -8.04
Cc1ccc(S(=O)(=O)NC(C)C(=O)NCc2ccc(Cl)cc2)cc1 (stereo unspecified) 3.94
CCc1ccc2nc(SCC(=O)Nc3ccccc3N3CCOCC3)c(C#N)cc2c1 24.8
NS(=O)(=O)c1ccc(NC(=O)c2cc(Cl)sc2Cl)cc1 -17.2
Cc1cc(C)cc(NC(=O)COC(=O)CC2CCCC2)c1 4.58
Cc1ccc(-c2c(=O)n(O)c3ccccc3[n+]2[O-])cc1 -1.24
CN1N=C2c3ccccc3CCC2C1c1ccc(F)cc1 (stereo unspecified) -9.95
O=[N+]([O-])c1cccc(COc2ccc(CN3CCOCC3)cc2)c1 -1.83
Cn1cc(CCC(=O)NCc2ccc3c(c2)OCO3)c2ccccc21 -3.65
O=C(Nc1c(S(=O)(=O)c2ccc(Cl)cc2)csc1Br)c1ccccc1Cl 8.08
c1coc(CSc2ncnc3c2oc2ccccc23)c1 -1.81
COc1ccc(CN(C)C[C@H]2Oc3ccc(NS(=O)(=O)c4ccc(Cl)cc4)cc3CC(=O)N([C@@H](C)CO)C[C@H]2C)cc1 -10.5
CCOC(=O)C(C)(C)n1nnc(-c2ccc([N+](=O)[O-])cc2)n1 -8.99
CC(=O)Oc1ccc(N(c2ccccc2)S(=O)(=O)c2ccc(C)cc2)cc1 -15.6
CN(C(=O)COC(=O)CSc1ccc(C(N)=O)cc1[N+](=O)[O-])C1CCCCC1 4.54
CCN(CC(=O)Nc1cccc(C#N)c1)CC(=O)Nc1cccc(OC)c1 -14.5
Cc1cccc(-c2ccc([C@@H]3[C@@H](CO)N4CCCCN(S(=O)(=O)c5ccccc5C)C[C@@H]34)cc2)c1 -12.8
COC(=O)c1cc2c(c3c4cc(F)ccc4n(S(=O)(=O)c4cccc(C)c4)c13)C(=O)N(Cc1ccco1)C2 6.4
CCOc1ccc2[nH]c3c(NCCN(C)C)ncnc3c2c1 10.3
S=c1[nH]nc(-c2ccc3ccccc3n2)n1-c1ccc2c(c1)OCCO2 -7.71
COC(=O)c1cn(C(=O)c2ccc(OC)cc2)c2ccccc12 -12.5
O=C(COc1ccc(Br)cc1)Nc1ccc(C(=O)Nc2ccccc2C(=O)O)cc1 -6.7
CNC(=O)c1ccsc1NC(=O)c1ccc(S(=O)(=O)N2CCc3ccccc32)cc1 -12
COC(=O)c1ccc2nc(-c3ccc(F)cc3)c(Cc3cccc(F)c3)n2c1 -0.548
Cc1ccc2oc(=O)n(CCCOc3ccccc3C)c2c1 -19.2
CCCCOc1ccc(-c2nnn(CCC(=O)N3CCOCC3)n2)cc1 -14.6
O=C(Nc1cccc(Cl)c1)N1C[C@@H]2[C@H](c3ccccc31)[C@@H](CO)N2C(=O)c1cccnc1 -1.82
CCc1ccc(NC(=O)CCc2c(C)nn(-c3ccc(N4CCCCC4)nn3)c2C)cc1 -14.7
CN(Cc1c(F)cccc1Cl)C(=O)c1ccc(NS(=O)(=O)c2ccc3[nH]c(=O)[nH]c3c2)cc1 -11.4
Cc1cc(SCC(=O)c2cccs2)n2nc(C)c(-c3ccc(Cl)cc3)c2n1 -11.5
Cc1ccccc1SCC(=O)OCC(=O)Nc1sccc1C(N)=O -19.8

By substructure, those above containing a furan ring, fused or not
Activity change, negative = inhibition, inactive:
c1coc(CSc2ncnc3c2oc2ccccc23)c1 -1.81
COC(=O)c1cc2c(c3c4cc(F)ccc4n(S(=O)(=O)c4cccc(C)c4)c13)C(=O)N(Cc1ccco1)C2 6.4
